Data reported in PubChem BioAssay AID1487 (National Center for Advancing Translational Sciences (NCATS), 2009).
The list shows a part of the results. Shown are side measurements of this screen, not its main read-out; they come without a call. Most of these compounds were active or inconclusive in the main read-out, so they are no random draw. Words in brackets tell the shape of the fitted curve; partial curves, single points and poor fits give uncertain potencies.

Experiment: qHTS Assay for Modulators of Lamin A Splicing
Settings: HeLa LMNA splicing GFP/RFP minigene ratio, 48 h
In short: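 S3 HeLa cells stably expressing lamin A-EGFP splicing minigene plus DsRed2, 600 cells/well, 48 h compound exposure at 37C. Laser-scanning cytometry; analysed as GFP (500-530 nm)/RFP (575-640 nm) total intensity ratio; 0.5% DMSO vehicle.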

[1] = measured here: RFP viability control channel
[2] = measured here: GFP splicing reporter channel

Compound | AC50 [1] | AC50 [2]
CC(C(=O)O)c1cccc(C(=O)c2ccccc2)c1 (stereo unspecified) | 0.316 µM [falling, full curve, poor fit] | 
CCC(Oc1ccccc1)C(=O)Nc1ccc(S(=O)(=O)Nc2cnc3ccccc3n2)cc1 (stereo unspecified) | 12.6 µM [rising, single point] | 
Nc1ncc(Br)cc1N=Cc1ccccc1 |  | 0.00562 µM [rising, full curve, poor fit]
O=c1[nH]c2ccc(NCc3ccc(-c4cccc(Cl)c4)o3)cc2[nH]1 |  | 12.6 µM [rising, single point]
CCOc1ccccc1CNC(=O)C1CCN(S(=O)(=O)c2cccc3nonc23)CC1 |  | 8.91 µM [falling, partial curve, poor fit]
COc1ccc2cc(C(=O)N/N=C/c3sc4ccccc4c3O)ccc2c1 | 12.6 µM [rising, partial curve] | 11.2 µM [rising, partial curve]
O=C(Nc1ccc2c(c1)CCC2)c1cc2ccccc2o1 | 35.5 µM [rising, single point] | 
Cc1ccc2nc(NC(=O)Cc3cccs3)sc2c1 | 31.6 µM [rising, single point] | 22.4 µM [rising, single point]
Cc1cccc(N2CCN(C(=O)C(Cc3ccccc3)n3cccc3)CC2)c1C (stereo unspecified) | 12.6 µM [rising, partial curve, poor fit] | 
CN(C)c1nc(-c2cccc(C#N)c2)nc2ccccc12 | 22.4 µM [falling, single point] | 
COC(=O)c1cc(=O)n(Cc2ccc(OC)c(OC)c2)c(=Nc2ccc(F)cc2)s1 | 31.6 µM [falling, single point] | 25.1 µM [falling, single point]
Nc1[nH]c(=S)nc2nc(-c3ccccc3)c(-c3ccccc3)nc12 |  | 0.794 µM [rising, full curve, poor fit]
CC1(C)CC(=O)C2=C(C1)OC1=C(C(=O)CC(C)(C)C1)C2c1ccc(O)cc1O | 2.82 µM [rising, full curve, poor fit] | 
COc1ccc(O)c(C(=O)CC(=O)c2ccccc2)c1 | 12.6 µM [rising, single point] | 11.2 µM [rising, partial curve, poor fit]
O=C(CC(=O)N/N=C\c1cccc(Cl)c1Cl)NCc1ccccc1 | 12.6 µM [rising, partial curve] | 14.1 µM [rising, single point]
O=c1c2c(-c3ccccc3)csc2nc2c3ccccc3c(NCCN3CCOCC3)nn12 | 3.16 µM [falling, partial curve] | 

One compound at a time (already shown):
`CCC(Oc1ccccc1)C(=O)Nc1ccc(S(=O)(=O)Nc2cnc3ccccc3n2)cc1` (stereo unspecified) as listed: AC50 [1]: 12.6 µM [rising, single point]
`O=C(Nc1ccc2c(c1)CCC2)c1cc2ccccc2o1` as listed: AC50 [1]: 35.5 µM [rising, single point]
